At least one structure is not confirmed: it was looked up by name or label, or the drawing left a doubt.
What was measured:
[1] = cited from earlier work
[2] = Effect of temperature on uptake rate by prototype passive sampler; settings: sampler fitted with polysulphone membrane; 4, 7, 11 and 15° C., 140 rpm; slopes have units of K
[3] = Uptake by prototype passive sampler at constant exposure concentration over time; settings: sampler fitted with polysulphone membrane, 140 rpm, 11° C.
Experimental: In each experiment, the prototype device was tested fitted with both the polyethylene and the polysulphone membrane.
Accumulation of organic analytes by a passive sampling system fitted with a C18 Empore™ disk as receiving phase and either a […] pore size polysulphone membrane or a polyethylene membrane as a diffusion-limiting membrane material. Accumulation was measured following exposure of the system to an aqueous solution of analytes at constant concentration, stirring speed (140 rpm) and temperature (11° C.). Linear regressions of the accumulation factor, AF, (ml/device) on time were plotted and are given with the […] (R^2) in table 7. AF=mass of analytes in the tested compartment (ng/device)/mean concentration of the analyte in the aqueous phase during deployment (ng/ml).
The pattern of uptake in each case is linear with time over deployment periods ranging from several hours to 9 days. R^2 values in each case are above 0.9. Linear regressions plotted through the data points show the lag time between exposure of the device to an aqueous solution of each analyte and its uptake into the receiving phase of the passive sampling system. In effect this is a measurement of the response time of a particular prototype passive sampling system to a particular compound.

## CCNc1nc(Cl)nc(NC(C)C)n1 [Atrazine]
[1]
  Log Kow: 2.50
[2]
  Linear regression of natural logarithm of uptake slope on reciprocal of absolute temperature: Y = −4464x + 16.67
[3]
  Linear regression of accumulation factor AF (ml/device) on time: Y = 2.42x + 4.15
